In the supplement of paper PMC10735217:
Where a name gives a salt, the structure may show the parent alone. This is one part of the list. This data set is noisy: repeats of one test often differ as much as different tests do.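 The human kidney-derived cells carry a stably integrated construct of eight TEAD-binding elements driving luciferase, read by luminescence in a drug-repurposing library screen. A compound counts as a hit when its signal is more than five robust Z scores above the plate mean.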

Tested on: HEK293A TEAD-LUC reporter
Assay: TEAD-luciferase reporter activity (YAP activation), robust Z score vs plate; higher = stronger YAP/TEAD activation
Settings: 24 h

Compound: CCCCc1ccc(CN(CC2CC2)S(C)(=O)=O)c(=O)n1Cc1ccc(-c2ccccc2-c2nn[nH]n2)cc1
- TEAD-luciferase reporter activity (compound concentration: 200 nM): inactive: -0.846
- TEAD-luciferase reporter activity (compound concentration: 2 uM): inactive: -0.974
- TEAD-luciferase reporter activity (compound concentration: 10 uM): inactive: 2.35

Compound: Cc1nc(-c2cnn(C)c2-c2ccc(C(F)(F)F)cn2)c2c(N3CCC3)ncnn12
- TEAD-luciferase reporter activity (compound concentration: 200 nM): inactive: -1.99
- TEAD-luciferase reporter activity (compound concentration: 2 uM): inactive: -0.315
- TEAD-luciferase reporter activity (compound concentration: 10 uM): inactive: 0.156

Compound: CC(C)(C)NC(=O)[C@@H]1CN(Cc2cccnc2)CCN1C[C@@H](O)C[C@H](Cc1ccccc1)C(=O)N[C@H]1c2ccccc2C[C@H]1O [Indinavir Sulfate]
- TEAD-luciferase reporter activity (compound concentration: 200 nM): inactive: 0.269
- TEAD-luciferase reporter activity (compound concentration: 2 uM): inactive: 0.746
- TEAD-luciferase reporter activity (compound concentration: 10 uM): inactive: -0.476

Compound: CC1=C(/C=C/C(C)=C/C=C/C(C)=C/C(=O)Oc2c(C)c(C)c3c(c2C)CC[C@@](C)(CCC[C@H](C)CCC[C@H](C)CCCC(C)C)O3)C(C)(C)CCC1 [Tretinoin tocoferil]
- TEAD-luciferase reporter activity (compound concentration: 200 nM): inactive: -1.2
- TEAD-luciferase reporter activity (compound concentration: 10 uM): inactive: 2.01

Compound: CC1=C(/C=C/C(C)=C/C=C/C(C)=C/C(=O)Oc2c(C)c(C)c3c(c2C)CC[C@@](C)(CCC[C@H](C)CCC[C@H](C)CCCC(C)C)O3)C(C)(C)CCC1
- TEAD-luciferase reporter activity (compound concentration: 2 uM): inactive: -1.6

Compound: COc1ccc(-c2cc(=S)ss2)cc1 [anethole dithiolethione]
- TEAD-luciferase reporter activity (compound concentration: 2 uM): inactive: -0.64

Compound: COc1ccc(-c2cc(=S)ss2)cc1 [Anethole dithiolethione]
- TEAD-luciferase reporter activity (compound concentration: 200 nM): inactive: 0.177
- TEAD-luciferase reporter activity (compound concentration: 2 uM): inactive: -0.0771
- TEAD-luciferase reporter activity (compound concentration: 10 uM): inactive: -0.557

Compound: CNCC(=O)O [Sarcosine]
- TEAD-luciferase reporter activity (compound concentration: 200 nM): inactive: -1.07
- TEAD-luciferase reporter activity (compound concentration: 2 uM): inactive: -1.74
- TEAD-luciferase reporter activity (compound concentration: 10 uM): inactive: -1.5

Compound: Cc1nc(NC(=O)N2CCC[C@H]2C(N)=O)sc1-c1ccnc(C(C)(C)C(F)(F)F)c1 [alpelisib]
- TEAD-luciferase reporter activity (compound concentration: 200 nM): inactive: -0.175
- TEAD-luciferase reporter activity (compound concentration: 2 uM): inactive: -2.3
- TEAD-luciferase reporter activity (compound concentration: 10 uM): inactive: -1.35

Compound: CCOC(=O)[C@H](CCSC)NC(=O)C(CSC(C)=O)Cc1ccccc1C (stereo not given in full)
- TEAD-luciferase reporter activity (compound concentration: 200 nM): inactive: -1.33
- TEAD-luciferase reporter activity (compound concentration: 2 uM): inactive: 0.152
- TEAD-luciferase reporter activity (compound concentration: 10 uM): inactive: 0.705

Compound: NS(=O)(=O)c1cccc2c1c([N+](=O)[O-])cc1[nH]c(=O)c(=O)[nH]c12
- TEAD-luciferase reporter activity (compound concentration: 200 nM): inactive: -2.05
- TEAD-luciferase reporter activity (compound concentration: 2 uM): inactive: -0.262
- TEAD-luciferase reporter activity (compound concentration: 10 uM): inactive: 2.06

Compound: O=C1c2ccccc2S(=O)(=O)N1CCCCN1CCN(c2ncccn2)CC1 [Ipsapirone]
- TEAD-luciferase reporter activity (compound concentration: 200 nM): inactive: -0.752
- TEAD-luciferase reporter activity (compound concentration: 2 uM): inactive: -0.908
- TEAD-luciferase reporter activity (compound concentration: 10 uM): inactive: -0.362

Compound: COc1cccc(C=O)c1O
- TEAD-luciferase reporter activity (compound concentration: 200 nM): inactive: -2
- TEAD-luciferase reporter activity (compound concentration: 2 uM): inactive: -0.624
- TEAD-luciferase reporter activity (compound concentration: 10 uM): inactive: 1.93

Compound: CC(=O)Nc1ccc(C(=O)NC(C)(C)C)cc1
- TEAD-luciferase reporter activity (compound concentration: 200 nM): inactive: 4.72
- TEAD-luciferase reporter activity (compound concentration: 2 uM): inactive: -0.677
- TEAD-luciferase reporter activity (compound concentration: 10 uM): inactive: 0.0192

Compound: CC(C)(S)C(=O)N[C@@H](CS)C(=O)O [bucillamine]
- TEAD-luciferase reporter activity (compound concentration: 200 nM): inactive: 0.649
- TEAD-luciferase reporter activity (compound concentration: 2 uM): inactive: 1.89
- TEAD-luciferase reporter activity (compound concentration: 10 uM): inactive: -0.718
